Measurements published in US9260739B2, “Method for the detection of acid production by cariogenic bacteria” (Ivoclar Vivadent AG, priority 2010, dated 2016).
At least one compound was matched to its structure with a doubt left.

Assay: pK of pH indicators
Type: physicochemical
Details: pH indicator
Procedure: In an alternative embodiment, the pH is determined using a pH indicator which changes colour on acid formation. The pH indicator is preferably added to the cariogenic bacteria together with the carbon source, e.g. by joint immobilization of pH indicator and carbon source on a test strip or by simultaneous addition of pH indicator and carbon source (preferably in the form of a single solution) to a diluted, undiluted or concentrated plaque or saliva sample. […] These comprise, e.g., the indicators bromocresol purple, bromocresol green, m-cresol purple, bromothymol blue, phenol red and chlorophenol red. […] The incubation time that must be applied until a colour change can be detected, depends on the carbon sources and test reagents used and also on their absolute and relative quantitative ratios to one another. In a preferred embodiment, the time period to a colour change of the pH indicator is less than 60 minutes, less than 45 minutes, less than 30 minutes, less than 20 minutes or less than 15 minutes after mixing bacteria, carbon source and indicator.

SMILES: O=S1(=O)OC(c2ccc(O)cc2)(c2ccc(O)cc2)c2ccccc21 [Phenol red]
- pK: 7.9
